In the supplement of paper PMC12067093, “Discovery and optimisation of a covalent ligand for TRIM25 and its application to targeted protein ubiquitination” (Chemical Science, 2025):
This is one part of the list.

The chains behind the UniProt entries cited, without tags or fusion partners. Where a name states a change or a piece, a line headed by the entry shows the natural chain unless it says otherwise.
UniProt P98194: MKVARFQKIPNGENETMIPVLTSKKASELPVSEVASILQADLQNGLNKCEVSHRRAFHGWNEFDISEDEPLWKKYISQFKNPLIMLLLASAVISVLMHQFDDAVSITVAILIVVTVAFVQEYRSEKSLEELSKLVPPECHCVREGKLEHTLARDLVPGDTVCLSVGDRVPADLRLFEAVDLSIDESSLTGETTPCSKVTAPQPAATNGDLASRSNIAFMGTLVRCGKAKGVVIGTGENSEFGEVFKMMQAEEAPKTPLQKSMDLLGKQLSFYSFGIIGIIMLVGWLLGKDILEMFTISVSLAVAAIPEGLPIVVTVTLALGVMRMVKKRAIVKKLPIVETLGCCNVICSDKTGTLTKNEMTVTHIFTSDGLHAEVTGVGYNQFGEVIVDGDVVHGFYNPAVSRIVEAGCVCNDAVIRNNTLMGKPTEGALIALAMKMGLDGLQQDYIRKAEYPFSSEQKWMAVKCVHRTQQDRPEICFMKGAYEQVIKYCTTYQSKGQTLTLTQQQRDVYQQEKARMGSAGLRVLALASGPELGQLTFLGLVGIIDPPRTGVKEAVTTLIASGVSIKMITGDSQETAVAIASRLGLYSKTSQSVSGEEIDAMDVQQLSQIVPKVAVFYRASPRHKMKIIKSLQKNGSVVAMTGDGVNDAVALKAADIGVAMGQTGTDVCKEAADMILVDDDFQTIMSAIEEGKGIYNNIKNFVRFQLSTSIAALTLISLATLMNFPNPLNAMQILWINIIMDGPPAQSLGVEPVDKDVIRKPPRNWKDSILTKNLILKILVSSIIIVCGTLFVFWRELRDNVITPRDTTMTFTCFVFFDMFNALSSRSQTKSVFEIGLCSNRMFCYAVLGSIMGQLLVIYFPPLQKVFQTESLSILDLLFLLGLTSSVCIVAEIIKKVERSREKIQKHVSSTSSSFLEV
UniProt Q9HD20: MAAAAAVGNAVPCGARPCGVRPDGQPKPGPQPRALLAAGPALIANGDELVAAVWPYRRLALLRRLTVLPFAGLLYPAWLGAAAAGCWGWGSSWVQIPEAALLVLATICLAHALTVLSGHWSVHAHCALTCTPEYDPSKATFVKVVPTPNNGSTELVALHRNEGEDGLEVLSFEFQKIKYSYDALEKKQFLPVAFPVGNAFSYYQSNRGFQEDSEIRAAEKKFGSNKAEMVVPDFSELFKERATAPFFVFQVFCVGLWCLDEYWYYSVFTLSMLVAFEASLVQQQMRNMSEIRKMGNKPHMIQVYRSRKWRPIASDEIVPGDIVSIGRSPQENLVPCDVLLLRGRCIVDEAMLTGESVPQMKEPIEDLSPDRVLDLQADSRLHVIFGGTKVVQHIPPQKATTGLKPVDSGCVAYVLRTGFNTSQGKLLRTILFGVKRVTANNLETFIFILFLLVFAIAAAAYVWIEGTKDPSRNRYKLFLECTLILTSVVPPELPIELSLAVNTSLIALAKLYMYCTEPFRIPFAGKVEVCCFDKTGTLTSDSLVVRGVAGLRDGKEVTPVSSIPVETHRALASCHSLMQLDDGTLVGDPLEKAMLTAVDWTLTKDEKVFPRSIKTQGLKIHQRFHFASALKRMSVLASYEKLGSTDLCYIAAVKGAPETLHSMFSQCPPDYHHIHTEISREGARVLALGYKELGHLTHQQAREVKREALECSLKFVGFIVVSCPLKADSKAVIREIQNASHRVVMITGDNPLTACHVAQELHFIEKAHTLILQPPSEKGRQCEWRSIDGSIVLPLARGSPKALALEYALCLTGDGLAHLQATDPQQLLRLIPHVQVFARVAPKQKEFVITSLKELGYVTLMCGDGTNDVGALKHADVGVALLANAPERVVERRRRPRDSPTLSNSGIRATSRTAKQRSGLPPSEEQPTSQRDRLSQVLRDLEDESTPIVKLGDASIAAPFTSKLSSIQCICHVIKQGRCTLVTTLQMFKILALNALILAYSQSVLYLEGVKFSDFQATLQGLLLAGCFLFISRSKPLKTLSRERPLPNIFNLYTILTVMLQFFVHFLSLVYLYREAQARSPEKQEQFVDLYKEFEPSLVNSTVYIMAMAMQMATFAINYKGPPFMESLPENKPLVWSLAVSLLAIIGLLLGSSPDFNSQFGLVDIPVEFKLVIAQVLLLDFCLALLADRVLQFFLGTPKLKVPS
UniProt P49407: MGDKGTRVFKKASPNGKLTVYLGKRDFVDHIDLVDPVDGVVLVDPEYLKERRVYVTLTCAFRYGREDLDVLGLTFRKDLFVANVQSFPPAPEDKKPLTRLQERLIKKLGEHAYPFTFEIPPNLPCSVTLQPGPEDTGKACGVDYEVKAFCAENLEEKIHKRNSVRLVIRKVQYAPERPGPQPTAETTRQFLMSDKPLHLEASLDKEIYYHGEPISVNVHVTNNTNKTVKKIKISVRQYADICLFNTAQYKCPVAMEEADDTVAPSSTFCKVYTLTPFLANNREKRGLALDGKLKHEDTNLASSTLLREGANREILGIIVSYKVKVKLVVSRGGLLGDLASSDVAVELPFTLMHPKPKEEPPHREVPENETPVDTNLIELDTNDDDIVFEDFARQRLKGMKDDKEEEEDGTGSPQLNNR
UniProt O95352: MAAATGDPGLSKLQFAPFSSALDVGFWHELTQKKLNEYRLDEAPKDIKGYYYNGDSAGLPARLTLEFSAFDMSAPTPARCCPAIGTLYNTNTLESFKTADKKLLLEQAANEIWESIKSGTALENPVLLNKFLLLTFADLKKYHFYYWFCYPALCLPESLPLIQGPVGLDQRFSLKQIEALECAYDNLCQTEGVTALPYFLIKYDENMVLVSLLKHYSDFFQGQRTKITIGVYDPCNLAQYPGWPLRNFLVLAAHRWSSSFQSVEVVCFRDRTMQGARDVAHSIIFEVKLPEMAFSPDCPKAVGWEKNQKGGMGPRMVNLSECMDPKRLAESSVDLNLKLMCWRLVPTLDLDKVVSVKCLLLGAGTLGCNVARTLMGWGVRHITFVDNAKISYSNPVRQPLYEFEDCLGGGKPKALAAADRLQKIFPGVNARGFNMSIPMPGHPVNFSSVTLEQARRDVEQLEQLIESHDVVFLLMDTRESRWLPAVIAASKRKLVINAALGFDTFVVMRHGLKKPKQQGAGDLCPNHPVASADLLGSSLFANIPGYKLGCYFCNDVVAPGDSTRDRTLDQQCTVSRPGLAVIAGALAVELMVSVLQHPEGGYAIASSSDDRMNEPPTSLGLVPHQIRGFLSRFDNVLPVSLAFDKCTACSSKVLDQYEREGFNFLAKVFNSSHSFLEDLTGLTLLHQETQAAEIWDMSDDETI
UniProt Q9ULH1: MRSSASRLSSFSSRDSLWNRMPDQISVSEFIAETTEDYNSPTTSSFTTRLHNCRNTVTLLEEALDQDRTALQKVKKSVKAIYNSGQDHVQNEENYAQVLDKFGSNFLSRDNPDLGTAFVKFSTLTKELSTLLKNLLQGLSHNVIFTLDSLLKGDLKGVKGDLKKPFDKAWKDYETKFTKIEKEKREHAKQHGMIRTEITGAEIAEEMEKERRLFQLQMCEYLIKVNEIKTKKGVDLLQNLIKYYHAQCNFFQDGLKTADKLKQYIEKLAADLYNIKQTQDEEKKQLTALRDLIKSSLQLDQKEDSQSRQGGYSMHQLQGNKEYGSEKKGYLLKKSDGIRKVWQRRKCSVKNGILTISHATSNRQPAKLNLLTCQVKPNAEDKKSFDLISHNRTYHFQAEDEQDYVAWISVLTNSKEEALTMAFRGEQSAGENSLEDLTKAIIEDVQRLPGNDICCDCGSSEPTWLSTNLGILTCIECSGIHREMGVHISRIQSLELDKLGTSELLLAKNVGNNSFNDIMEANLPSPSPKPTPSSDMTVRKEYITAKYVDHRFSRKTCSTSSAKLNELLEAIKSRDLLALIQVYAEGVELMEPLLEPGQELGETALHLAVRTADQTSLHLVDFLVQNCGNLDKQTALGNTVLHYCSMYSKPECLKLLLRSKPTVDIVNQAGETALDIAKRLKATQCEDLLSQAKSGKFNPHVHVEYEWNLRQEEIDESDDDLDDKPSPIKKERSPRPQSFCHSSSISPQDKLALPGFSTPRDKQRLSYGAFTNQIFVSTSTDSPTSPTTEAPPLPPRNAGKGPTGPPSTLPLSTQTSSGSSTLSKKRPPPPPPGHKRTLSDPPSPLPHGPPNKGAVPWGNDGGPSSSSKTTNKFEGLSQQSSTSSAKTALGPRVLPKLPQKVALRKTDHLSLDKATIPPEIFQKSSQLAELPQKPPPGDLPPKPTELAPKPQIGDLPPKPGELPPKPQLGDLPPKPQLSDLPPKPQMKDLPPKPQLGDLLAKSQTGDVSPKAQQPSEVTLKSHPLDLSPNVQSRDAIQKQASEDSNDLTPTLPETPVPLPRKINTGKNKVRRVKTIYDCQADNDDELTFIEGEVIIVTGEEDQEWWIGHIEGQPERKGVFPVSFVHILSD
UniProt O00244: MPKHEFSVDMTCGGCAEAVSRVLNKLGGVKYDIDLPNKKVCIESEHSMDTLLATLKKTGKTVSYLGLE
UniProt Q2TAZ0: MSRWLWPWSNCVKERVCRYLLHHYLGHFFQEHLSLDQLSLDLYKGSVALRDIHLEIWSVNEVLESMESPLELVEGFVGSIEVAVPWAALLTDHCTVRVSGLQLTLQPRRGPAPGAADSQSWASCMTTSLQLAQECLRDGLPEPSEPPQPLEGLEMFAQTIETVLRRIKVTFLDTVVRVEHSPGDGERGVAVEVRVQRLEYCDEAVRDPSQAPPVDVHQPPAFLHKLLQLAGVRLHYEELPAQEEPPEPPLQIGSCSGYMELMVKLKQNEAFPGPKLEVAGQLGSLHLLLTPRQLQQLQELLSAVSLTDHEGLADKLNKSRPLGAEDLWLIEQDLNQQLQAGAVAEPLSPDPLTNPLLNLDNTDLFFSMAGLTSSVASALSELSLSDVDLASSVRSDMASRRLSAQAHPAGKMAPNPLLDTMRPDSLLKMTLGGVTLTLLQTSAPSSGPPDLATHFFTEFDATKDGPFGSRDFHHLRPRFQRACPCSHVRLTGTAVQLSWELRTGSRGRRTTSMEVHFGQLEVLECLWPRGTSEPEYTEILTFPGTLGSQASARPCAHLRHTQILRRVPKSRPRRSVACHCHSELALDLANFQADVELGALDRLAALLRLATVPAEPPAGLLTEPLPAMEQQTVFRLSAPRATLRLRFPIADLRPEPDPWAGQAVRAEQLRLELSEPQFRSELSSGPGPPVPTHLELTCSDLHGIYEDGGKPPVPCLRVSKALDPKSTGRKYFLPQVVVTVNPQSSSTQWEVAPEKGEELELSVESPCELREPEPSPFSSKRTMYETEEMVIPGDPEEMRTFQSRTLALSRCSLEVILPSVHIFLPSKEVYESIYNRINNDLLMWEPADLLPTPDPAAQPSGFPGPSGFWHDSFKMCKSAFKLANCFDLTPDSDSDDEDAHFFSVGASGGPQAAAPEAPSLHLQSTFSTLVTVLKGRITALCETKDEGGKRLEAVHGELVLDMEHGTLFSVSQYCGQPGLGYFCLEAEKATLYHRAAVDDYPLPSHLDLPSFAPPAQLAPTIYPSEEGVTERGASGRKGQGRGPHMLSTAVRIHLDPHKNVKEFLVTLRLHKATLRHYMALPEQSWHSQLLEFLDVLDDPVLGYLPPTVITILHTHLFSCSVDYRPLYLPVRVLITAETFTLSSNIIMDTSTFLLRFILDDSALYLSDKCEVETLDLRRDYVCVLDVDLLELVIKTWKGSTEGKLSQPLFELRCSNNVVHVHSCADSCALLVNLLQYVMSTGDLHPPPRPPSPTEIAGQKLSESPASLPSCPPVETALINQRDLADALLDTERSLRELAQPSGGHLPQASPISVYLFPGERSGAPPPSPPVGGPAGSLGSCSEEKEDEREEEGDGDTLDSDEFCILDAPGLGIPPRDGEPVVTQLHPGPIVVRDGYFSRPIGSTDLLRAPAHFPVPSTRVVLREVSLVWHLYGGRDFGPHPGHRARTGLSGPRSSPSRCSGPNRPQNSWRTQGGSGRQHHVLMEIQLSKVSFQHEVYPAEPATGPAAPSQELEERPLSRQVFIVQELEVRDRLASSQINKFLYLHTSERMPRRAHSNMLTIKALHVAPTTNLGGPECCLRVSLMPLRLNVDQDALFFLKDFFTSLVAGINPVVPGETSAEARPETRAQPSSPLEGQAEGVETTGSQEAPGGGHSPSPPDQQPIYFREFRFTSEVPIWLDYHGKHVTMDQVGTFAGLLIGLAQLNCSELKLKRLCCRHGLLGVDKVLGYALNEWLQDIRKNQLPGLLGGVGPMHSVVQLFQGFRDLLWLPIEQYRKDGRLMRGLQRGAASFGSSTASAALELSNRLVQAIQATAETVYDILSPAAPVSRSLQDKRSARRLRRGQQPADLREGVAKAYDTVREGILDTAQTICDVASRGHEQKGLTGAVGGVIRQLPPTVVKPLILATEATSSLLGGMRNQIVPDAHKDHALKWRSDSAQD

Compound: CC1Cc2ccccc2N1C(=O)C1CCCN(C1)C(=O)CCl (mixture of isomers) [TRIM25 ligand 11 (diastereomer mixture)]
Assay: probe-labelled cysteine peptide fold change vs DMSO (competition) (log2 fold change); higher = less target engagement (more negative = stronger competition)
Conditions: THP-1, incubation time: 4 h
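Note: competitive chemoproteomic profiling in live THP-1 cells with an iodoacetamide desthiobiotin (IA-DTB) probe, comparing probe-labelled peptide intensities in compound-treated cells against DMSO-treated controls.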

Target | probe-labelled cysteine peptide fold change (10 µM) | probe-labelled cysteine peptide fold change (50 µM)
ARV1_Q9H2C2_30_GNVDGVAATPTAASASCQYR (UniProt Q9H2C2) | 0.186 | 0.0212
ATP2B1_P20020_473_HLDACETMGNATAICSDK (UniProt P20020) | 0.0473 | -0.103
ATRIP_Q8WXE1_585_FQCVFQVLPK (UniProt Q8WXE1) | 0.0141 | -0.0426
ATP2C1_P98194_348_KLPIVETLGCCNVICSDK (UniProt P98194) | 0.0821 | 0.175
ATP13A1_Q9HD20_969_LSSIQCICHVIK (UniProt Q9HD20) | -0.0413 | 0.0236
ARRB1_P49407_140_ACGVDYEVK (UniProt P49407) | -0.0906 | -0.209
ATP6V1H_Q9UI12_226_FAWVEADGVNCIMGVLSNK (UniProt Q9UI12) | 0.279 | 0.447
ATP2A2_P16615_560_CLALATHDNPLR (UniProt P16615) | 0.0746 | -0.0253
ATG7_O95352_298_LPEMAFSPDCPK (UniProt O95352) | -0.028 | -0.0957
ASAP2_O43150_354_LNLLTCQVK (UniProt O43150) | -0.017 | 0.321
AR_P10275_602_NDCTIDK (UniProt P10275) | -0.064 | -0.0782
ATRN_O75882_101_ECDRPCVNGGR (UniProt O75882) | 0.134 | 0.0931
ASAP1_Q9ULH1_557_TCSTSSAK (UniProt Q9ULH1) | 0.0412 | 0.0216
ATF2_P15336_418_DCPVTAMQK (UniProt P15336) | -0.211 | -0.349
ATRN_O75882_657_SEAACLAAGPGIR (UniProt O75882) | 0.0494 | 0.0322
ATP6V0D1_P61421_244_LFPHCGR (UniProt P61421) | 0.0933 | 0.0427
ATG4B_Q9Y4P1_333_TEDDFNDWCQQVK (UniProt Q9Y4P1) | -0.223 | -0.125
ARPC3_O15145_162_WWTCFVK (UniProt O15145) | -0.265 | -0.122
ATG2B_Q96BY7_1750_KSPGADVTCSLPR (UniProt Q96BY7) | 0.0995 | -0.0451

Target | probe-labelled cysteine peptide fold change (10 µM) | probe-labelled cysteine peptide fold change (50 µM)
ASCC3_Q8N3C0_1874_CLPIESNPHSFDSPHTK (UniProt Q8N3C0) | 0.0413 | -0.113
ATP2C1_P98194_411_IVEAGCVCNDAVIR (UniProt P98194) | -0.000286 | 0.297
ATM_Q13315_12_SLVLNDLLICCR (UniProt Q13315) | -0.475 | -0.182
ATOX1_O00244_12_PKHEFSVDMTCGGCAEAVSR (UniProt O00244) | -0.204 | 0.25
ARRB2_P32121_126_KLGQHAHPFFFTIPQNLPCSVTLQPGPEDTGK (UniProt P32121) | -0.12 | -0.0524
ATN1_P54259_851_APVECPSLGPVPHRPPFEPGSAVATVPPYLGPDTPALR (UniProt P54259) | -0.264 | -0.181
ATG7_O95352_235_ITIGVYDPCNLAQYPGWPLR (UniProt O95352) | -0.382 | 0.356
ATG16L1_Q676U5_145_IAECLQTISDLETECLDLR (UniProt Q676U5) | 0.0275 | -0.0177
ATIC_P31939_363_KNGNYCVLQMDQSYKPDENEVR (UniProt P31939) | 0.0888 | -0.0425
ATAD2_Q6PL18_484_ALANECSQGDKR (UniProt Q6PL18) | -0.121 | 0.0155
ATP9B_O43861_551_AIVLCHNVTPVYESR (UniProt O43861) | 0.0569 | -0.164
ASAP1_Q9ULH1_652_QTALGNTVLHYCSMYSKPECLK (UniProt Q9ULH1) | 0.0362 | 0.157
ARRB1_P49407_251_CPVAMEEADDTVAPSSTFCK (UniProt P49407) | 0.123 | 0.213
ASB1_Q9Y576_36_EQFCDHPLEHCEDTR (UniProt Q9Y576) | 0.123 | -0.0882
ATL2_Q8NHH9_293_HIHNCFSNLGCFLLPHPGLK (UniProt Q8NHH9) | -0.118 | -0.0972
ATP6V1A_P38606_532_FCPFYK (UniProt P38606) | 0.0234 | 0.145
ATG4C_Q96DT6_65_TLPAESGCTIEDHVIAGNVEEFRK (UniProt Q96DT6) | 0.0384 | 0.00844
ATP13A1_Q9HD20_862_ELGYVTLMCGDGTNDVGALK (UniProt Q9HD20) | 0.0278 | -0.2
ATG2A_Q2TAZ0_811_CSLEVILPSVHIFLPSK (UniProt Q2TAZ0) | 0.0246 | 0.0488

Part of the list above, field by field.
ARRB2_P32121_126_KLGQHAHPFFFTIPQNLPCSVTLQPGPEDTGK (UniProt P32121)
  probe-labelled cysteine peptide fold change (10 µM) = -0.12
  probe-labelled cysteine peptide fold change (50 µM) = -0.0524
ATG7_O95352_235_ITIGVYDPCNLAQYPGWPLR (UniProt O95352)
  probe-labelled cysteine peptide fold change (10 µM) = -0.382
  probe-labelled cysteine peptide fold change (50 µM) = 0.356
ATG2A_Q2TAZ0_811_CSLEVILPSVHIFLPSK (UniProt Q2TAZ0)
  probe-labelled cysteine peptide fold change (10 µM) = 0.0246
  probe-labelled cysteine peptide fold change (50 µM) = 0.0488
